Reference: US12419871B2, “Biomolecules involved in Alzheimer's disease” (ELECTROPHORETICS LIMITED, priority 2015, dated 2025)

Experiment: TMTcalibrator quantification of regulated proteins in AD CSF versus control
Set-up: species or system human
Conditions: CSF of AD patient versus control; non-modified peptides of each protein summed for three control and three AD cases

B1: O60678 (protein, UniProt O60678 1-531, looked up)
chain: MCSLASGATGGRGAVENEEDLPELSDSGDEAAWEDEDDADLPHGKQQTPCLFCNRLFTSAEETFSHCKSEHQFNIDSMVHKHGLEFYGYIKLINFIRLKNPTVEYMNSIYNPVPWEKEEYLKPVLEDDLLLQFDVEDLYEPVSVPFSYPNGLSENTSVVEKLKHMEARALSAEAALARAREDLQKMKQFAQDFVMHTDVRTCSSSTSVIADLQEDEDGVYFSSYGHYGIHEEMLKDKIRTESYRDFIYQNPHIFKDKVVLDVGCGTGILSMFAAKAGAKKVLGVDQSEILYQAMDIIRLNKLEDTITLIKGKIEEVHLPVEKVDVIISEWMGYFLLFESMLDSVLYAKNKYLAKGGSVYPDICTISLVAVSDVNKHADRIAFWDDVYGFKMSCMKKAVIPEAVVEVLDPKTLISEPCGIKHIDCHTTSISDLEFSSDFTLKITRTSMCTAIAGYFDIYFEKNCHNRVVFSTGPQSTKTHWKQTVFLLEKPFSVKAGEALKGKVTVHKNKKDPRSLTVTLTLNNSTQTYGLQ
modifications: full-length
Log2 AD/Control: 1.27

B2: Q92520 (protein, UniProt Q92520 1-227, looked up)
chain: MRVAGAAKLVVAVAVFLLTFYVISQVFEIKMDASLGNLFARSALDTAARSTKPPRYKCGISKACPEKHFAFKMASGAANVVGPKICLEDNVLMSGVKNNVGRGINVALANGKTGEVLDTKYFDMWGGDVAPFIEFLKAIQDGTIVLMGTYDDGATKLNDEARRLIADLGSTSITNLGFRDNWVFCGGKGIKTKSPFEQHIKNNKDTNKYEGWPEVVEMEGCIPQKQD
modifications: full-length
Log2 AD/Control: 0.68

B3: P02760 (protein, UniProt P02760 1-352, looked up)
chain: MRSLGALLLLLSACLAVSAGPVPTPPDNIQVQENFNISRIYGKWYNLAIGSTCPWLKKIMDRMTVSTLVLGEGATEAEISMTSTRWRKGVCEETSGAYEKTDTDGKFLYHKSKWNITMESYVVHTNYDEYAIFLTKKFSRHHGPTITAKLYGRAPQLRETLLQDFRVVAQGVGIPEDSIFTMADRGECVPGEQEPEPILIPRVRRAVLPQEEEGSGGGQLVTEVTKKEDSCQLGYSAGPCMGMTSRYFYNGTSMACETFQYGGCMGNGNNFVTEKECLQTCRTVAACNLPIVRGPCRAFIQLWAFDAVKGKCVLFPYGGCQGNGNKFYSEKECREYCGVPGDGDEELLRFSN
modifications: full-length
Log2 AD/Control: −0.95

B4: Q9H7Z7 (protein, UniProt Q9H7Z7 1-377, looked up)
chain: MDPAARVVRALWPGGCALAWRLGGRPQPLLPTQSRAGFAGAAGGPSPVAAARKGSPRLLGAAALALGGALGLYHTARWHLRAQDLHAERSAAQLSLSSRLQLTLYQYKTCPFCSKVRAFLDFHALPYQVVEVNPVRRAEIKFSSYRKVPILVAQEGESSQQLNDSSVIISALKTYLVSGQPLEEIITYYPAMKAVNEQGKEVTEFGNKYWLMLNEKEAQQVYGGKEARTEEMKWRQWADDWLVHLISPNVYRTPTEALASFDYIVREGKFGAVEGAVAKYMGAAAMYLISKRLKSRHRLQDNVREDLYEAADKWVAAVGKDRPFMGGQKPNLADLAVYGVLRVMEGLDAFDDLMQHTHIQPWYLRVERAITEASPAH
modifications: full-length
Log2 AD/Control: 0.98

B5: P55008 (protein, UniProt P55008 1-147, looked up)
chain: MSQTRDLQGGKAFGLLKAQQEERLDEINKQFLDDPKYSSDEDLPSKLEGFKEKYMEFDLNGNGDIDIMSLKRMLEKLGVPKTHLELKKLIGEVSSGSGETFSYPDFLRMMLGKRSAILKMILMYEEKAREKEKPTGPPAKKAISELP
modifications: full-length
Log2 AD/Control: 0.82
